According to PubChem BioAssay AID1259415 (National Center for Advancing Translational Sciences (NCATS), 2018):
Hit rate of the full screen: of about 410,000 compounds, about 18,000 (4.4%) were called active. Inconclusive results, whose numbers are uncertain, are shown with a selection of clear calls. Rule as the data show it: active = activity change below about -60%; inconclusive = no clear call, values can overlap the other calls; inactive = above about -39%.

Experiment: qHTS Assay for inhibitors of the human cytomegalovirus (HCMV)
Conditions: HFF cells, HCMV-luciferase reporter, 72 h; at 57.5 µM; stronger effect = lower value
In short: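 Two-dose cell screen: HFF monolayers treated with compounds and infected with luciferase-expressing HCMV at 1 PFU/cell, 72 h at 37C, then lysed for luciferase measurement.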
% is scaled to controls: 0 for no effect and ±100 for the full control effect.

SMILES | activity change, negative = inhibition
CCOC(=O)c1sc(NC(=O)CN(CC)CC)c(C(=O)OCC)c1C | inconclusive: -53.7%
CCOc1ccc(OCC(=O)Nc2ccc(OC)cc2[N+](=O)[O-])cc1 | inconclusive: -51.8%
Cc1ccc(NC(=O)c2ccccc2)cc1C | inactive: 44.4%
O=C(COC(=O)c1ccc(O)cc1)NC1CCCCCC1 | inactive: -0.54%
COc1ccc(OC(=O)c2cn(-c3cccc(OC)c3)c(=O)c3ccccc23)cc1 | inconclusive: -42.3%
COc1ccc(C(C)(C)C)cc1NC(=O)CCNC(=O)c1ccco1 | inconclusive: -44.8%
Cc1nc2ccc(NC(=O)c3cc(S(=O)(=O)N(C)c4ccccc4)ccc3Cl)cc2s1 | inconclusive: -59.4%
COc1cccc(N2CC(NC(=O)c3cccs3)CC2=O)c1 (configuration not stated) | inactive: 25.3%
COc1cccc(CNC(=O)CCc2c(C)nn(-c3ccc(N4CCCC4)nn3)c2C)c1 | inconclusive: -50.9%
COc1ccc([N+](=O)[O-])cc1NC(=O)Nc1ccc(OC)c(OC)c1 | active: -72.4%
CCc1ccc(-c2csc3ncn(Cc4ccc(C(=O)O)cc4)c(=O)c23)cc1 | inconclusive: -45.3%
CC1CCN(S(=O)(=O)N2CCC(C(=O)NCc3ccc(F)cc3Cl)CC2)CC1 | inactive: -25.2%
CCCCC(=O)N=c1sc2cc([N+](=O)[O-])ccc2n1C | inconclusive: -47.7%
Cc1ccc(-c2nc3cccnc3s2)cc1NS(C)(=O)=O | inactive: 94.4%
COC(=O)C(NS(=O)(=O)c1ccc(F)cc1)c1ccccc1 (configuration not stated) | inconclusive: -56.6%
CN(C)c1ccc(C(=O)OCC(=O)Nc2ccc(N3CCOCC3)cc2)cc1 | inconclusive: -47.8%
COC(=O)c1sc(-c2ccc(Cl)cc2)cc1NC(=O)COCC(=O)O | inactive: -32.5%
CCOc1ccc(Cl)cc1/C=N/NC(=O)c1ccccc1 | inconclusive: -58.1%
Cc1ccc(NC(=O)C2(C)Cc3ccccc3C(=O)O2)cc1 (configuration not stated) | active: -60.1%
CCCc1nc(SCC(=O)c2ccccc2)c2c(=O)n(C)c(=O)n(C)c2n1 | inconclusive: -44.5%
Cn1c(SCC(=O)NC2CCCCC2)nnc1-c1ccc(N)cc1 | inconclusive: -45.3%
Cc1ccc(CS(=O)(=O)c2cn(CC(=O)Nc3ccon3)c3ccccc23)cc1 | inconclusive: -59.2%

SMILES | activity change, negative = inhibition
Cc1c(Cl)cccc1NC(=O)CCCN1C(=O)CCC1=O | inactive: -1.89%
CN=c1scc(-c2ccccc2F)n1/N=C/c1ccc(O)c(O)c1O | active: -78.5%
CCOC(=O)c1ccc(NC(=O)C2CCN(C(=O)N3CC(C)Oc4ccc(C)cc43)CC2)cc1 (configuration not stated) | inactive: -24.4%
CCNC(=O)C/C(C)=N/NC(=O)C1CCCCC1 | inactive: 13.8%
Cn1c(=O)n(Cc2ccc(F)cc2)c(=O)c2c1nc1n2CCCN1Cc1ccccc1 | inactive: -15.4%
Cc1ccc(C2C3=C(CC(C)(C)CC3=O)Nc3onc(C)c32)cc1 (configuration not stated) | inconclusive: -41.3%
S=C(NCCN1CCOCC1)Nc1ccc(Cl)cc1Cl | inactive: -22.9%
CN1/C(=C\C=Nc2ccccc2)C(C)(C)c2ccccc21 | inconclusive: -52.2%
Cc1cc(NC(=O)CSc2ccccn2)cc(NC(=O)CSc2ccccn2)c1 | inconclusive: -44.8%
COc1ccc(NC(=O)C2(C)Cc3c(-c4cccc(NC(C)=O)c4)ccnc3O2)cn1 (configuration not stated) | active: -71.6%
C=CC[n+]1c(/C=C/c2ccc(OC(C)=O)c(OC)c2)ccc2ccccc21 | active: -99.5%
CSc1ccc(NC(=O)C2(C)CCN2C(=O)C2(c3ccccc3)CC2)cc1 (configuration not stated) | inconclusive: -41.1%
Fc1ccccc1Sc1ccccc1CNC1=NCCN1 | active: -61.3%
COc1ccc(-c2oc3ncnc(NCCCN4CCOCC4)c3c2-c2ccc(OC)cc2)cc1 | inconclusive: -47.3%
O=C(CCc1nnc2n(Cc3ccccc3Cl)c(=O)c3ccccc3n12)Nc1ccc(F)c(F)c1 | inconclusive: -43.9%
Cc1c(CCOC(=O)c2cc([N+](=O)[O-])cc([N+](=O)[O-])c2)sc[n+]1CCCCS(=O)(=O)[O-] | inactive: 24.5%
NS(=O)(=O)c1ccc(Sc2ccccn2)c([N+](=O)[O-])c1 | inactive: 23.1%
Cc1occc1-c1nnc(SCC(=O)Nc2ccccc2N2CCCCC2)n1C | inconclusive: -44.4%
COc1ccc(-c2cn3c(C)c(C(=O)N4CCCc5ccccc54)sc3n2)cc1 | inconclusive: -57.4%
CCc1c(C)nc2c(OC)cccc2c1Cl | active: -75.4%
Cc1ccc2nc(NC(=O)C3CCN(S(=O)(=O)c4cccs4)CC3)sc2c1 | active: -93.8%
Cc1ccc(N2CCN(CCc3nc4cc(NC(=O)c5ccco5)ccc4n3C)CC2)cc1 | inconclusive: -45.8%

At a glance, some entries already given.
SMILES | activity change, negative = inhibition
CCOc1ccc(Cl)cc1/C=N/NC(=O)c1ccccc1 | inconclusive: -58.1%
Cc1ccc(NC(=O)C2(C)Cc3ccccc3C(=O)O2)cc1 (configuration not stated) | active: -60.1%
CCCc1nc(SCC(=O)c2ccccc2)c2c(=O)n(C)c(=O)n(C)c2n1 | inconclusive: -44.5%
Cn1c(SCC(=O)NC2CCCCC2)nnc1-c1ccc(N)cc1 | inconclusive: -45.3%

2 entries from above, field by field.
CCNC(=O)C/C(C)=N/NC(=O)C1CCCCC1
  activity change, negative = inhibition: inactive: 13.8%
CSc1ccc(NC(=O)C2(C)CCN2C(=O)C2(c3ccccc3)CC2)cc1 (configuration not stated)
  activity change, negative = inhibition: inconclusive: -41.1%

Additional structures follow:

SMILES | activity change, negative = inhibition
NC(=O)COC(=O)c1cc(-c2cccs2)nn1-c1ccccc1 | inconclusive: -45%
CCc1ccc(NC(=O)c2ccc3oc(=O)n(Cc4ccccc4)c3c2)cc1 | inconclusive: -55.4%
Cc1cccc(-c2nc(C#N)c(N3CCCCC3)o2)c1 | inconclusive: -44.6%
CCS(=O)(=O)c1ccc2oc(SCC(=O)NCCc3ccccc3)nc2c1 | inactive: 30.7%
Cc1c(N=NC2=C(O)CCCC2=O)c(=O)n(-c2ccccc2)n1C | inconclusive: -41.1%
CC(C)CN(C(=O)C(C)N1C(=O)c2ccccc2C1=O)c1c(N)n(Cc2ccccc2)c(=O)[nH]c1=O (configuration not stated) | inactive: -9.23%
O=C1CC(c2ccccc2)CC(O)=C1C=Nc1ccccc1O (configuration not stated) | active: -74.9%
COc1cc2c(cc1OC)C(C)N(C(=O)[C@@H](NC(=O)c1ccccc1)C(C)C)CC2 (some centres not stated) | inconclusive: -54.8%
O=C(O)c1ccc(-n2cc(-c3cc4ccccc4oc3=O)[nH]c2=S)cc1 | active: -64.3%
Cc1cc(Cl)c(S(=O)(=O)N2CCN(c3ccc(F)cc3)CC2)cc1OCC(=O)NC1CCCCC1 | active: -98.3%
COc1ccc(C2=[N+](C)CCn3cccc32)c(OC)c1 | active: -96.3%
S=C(NC1CCCCC1)NN(c1ccccc1)c1ccccc1 | inconclusive: -40.4%
Cc1ccc(O)c(NC(=O)c2noc3c2CCCCC3)c1 | inconclusive: -54.3%
Cn1cnc(S(=O)(=O)N2CCN(c3ccccc3)CC2)c1 | inconclusive: -41.6%
Cc1c(C(=O)O)cccc1-n1c(C)cc(/C=C(/C#N)C(=O)NCc2ccccc2)c1C | inactive: -1.31%
Cc1ccc(NC(=O)C2CCN(S(=O)(=O)c3ccccc3)CC2)cc1 | inconclusive: -40%
COc1cccc(N2CCN(C(=O)C3CCN(S(=O)(=O)c4cccs4)CC3)CC2)c1 | inconclusive: -42.2%
Cc1cc(-n2c(C)nc3ccccc3c2=O)ccc1NC(=O)c1ccc(C)c([N+](=O)[O-])c1 | inconclusive: -40.5%
CCCn1c(N)c(C(=O)COc2ccc(Br)cc2F)c(=O)n(C)c1=O | inconclusive: -57.4%
COC(=O)CNC(=O)COC(=O)c1ccc(OC)c([N+](=O)[O-])c1 | inactive: 45.6%
COc1ccccc1OCc1ccc(C(=O)N/N=C/c2ccco2)cc1 | inconclusive: -43.1%
Cc1ccccc1NC(=S)N(Cc1ccccc1)Cc1cccnc1 | inactive: 3.07%

SMILES | activity change, negative = inhibition
COc1ccccc1NC(=O)C1CCCN(S(=O)(=O)c2ccccc2)C1 (configuration not stated) | inactive: 5.92%
CCOc1ccc2ncc(S(=O)(=O)c3ccc(C)cc3)c(N3CCC4(CC3)OCCO4)c2c1 | active: -89.8%
Cc1ccc(CN(C(=O)COc2ccc(Cl)c(C)c2)c2ccccn2)o1 | inactive: -6.09%
COc1ccc(CCNC(=O)CCNC(=O)c2ccccc2Cl)cc1 | inconclusive: -52.7%
COc1ccc(-c2nnc3ccc(SCC(=O)Nc4cc(C)on4)nn23)cc1OC | inconclusive: -45.1%
C[C@]12CCC(=O)C=C1C=C[C@@H]1[C@@H]2CC[C@@]2(C)[C@H]1CC[C@@]21CCC(=O)O1 | inconclusive: -42.3%
Cc1ccc(C(c2ccc(C)c(C)c2)C(O)C2OC(=O)C(O)C2O)cc1C (configuration not stated) | inactive: 0.951%
CCN1CCN(c2nc(S(=O)(=O)c3ccc(C)cc3)c(Cl)s2)CC1 | inconclusive: -43.9%
COc1ccc(S(=O)(=O)n2cnc3cc(C)c(C)cc32)cc1C | inconclusive: -52.1%
C[N+]12CCC(CC1)C(=C(c1ccccc1)c1ccccc1)C2 | inconclusive: -55.2%
CC1=CC=CC2=NC(=O)CC(C)(C(=O)O)N12 (configuration not stated) | inconclusive: -48.7%
O=C(Cn1ncc2c3ccccc3n(Cc3ccccc3F)c2c1=O)NC1CCCCCC1 | inactive: 5.52%
COc1ccc(-n2cc(C(=O)O)c3ccccc3c2=O)cc1 | inactive: -1.33%
COc1cccc(NC(=O)CSc2nc3c([nH]c4ccccc43)c(=O)n2-c2ccccc2)c1 | inconclusive: -59.6%
Cc1ccc(NC(=O)CSc2nnc(C)n3c2cc2sccc23)c(C)c1 | inactive: -37.8%
COC(=O)c1cc(C)nc2c1C(=O)C(=O)C=C2N1CCOCC1 | active: -93.1%
CCOc1ccc(Oc2ccccc2NC(=O)CCNC(C)=O)cc1 | inconclusive: -43.3%
C[C@H](CO)N1C[C@H](C)[C@@H](CN(C)C(=O)Nc2ccc(C(F)(F)F)cc2)Oc2ccc(NS(=O)(=O)c3ccccc3)cc2C1=O | inactive: -29.2%
Cc1cccc(NC(=S)NCc2ccco2)c1C | inconclusive: -51.2%
O=C(CCC(=O)N1CCN(c2ccc(O)cc2)CC1)c1cccs1 | inconclusive: -48.5%
CCCCn1c(N)c(N(CCOC)C(=O)c2cc(-c3ccc(OC)cc3)nc3ccccc23)c(=O)[nH]c1=O | inconclusive: -50.6%
